In the supplement of paper PMC6078165:
The reference is the same well before dosing, and untreated signal decays as well.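 The tumor cells are basal-like or mesenchymal-like triple-negative breast cancer lines cultured without fibroblasts. Reduced red signal indicates lost mitochondrial integrity, serving as a proxy for apoptotic death.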

Legend:
Assay in all cases: relative JC-1 red fluorescence (viability) vs pre-drug, monoculture (fraction); higher = more viable cancer cells
Settings in all cases: coculture fibroblast: none (monoculture)
HCC1143 = tested on: HCC1143
Description: (§1)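 JC-1 labelled TNBC cells grown in monoculture (density kept equal with unlabelled cancer cells) in 384-well plates in FluoroBrite medium, treated with one of 42 anticancer drugs at 0.1, 1, 10 or 100 uM. JC-1 red fluorescence (mitochondrial integrity, surrogate of apoptotic death) was read by plate reader every 8 h for 72 h. Values are normalised to each well's pre-drug value, with background from alamethicin. The stock of one drug was tenfold lower, so its dose labels may be too high. Monoculture values are repeated alongside each fibroblast plate and are averaged here.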

BT20 = tested on: BT20
Description: as §1

MDAMB468 = tested on: MDAMB468
Description: as §1

Hs578T = tested on: Hs578T
Description: as §1

C#Cc1cccc(Nc2ncnc3cc(OCCOC)c(OCCOC)cc23)c1 [Erlotinib]
relative JC-1 red fluorescence
Settings | 8 h | 16 h | 24 h | 32 h | 40 h | 48 h | 56 h | 64 h | 72 h
BT20, 0.1 µM | 0.951 | 0.8733 | 0.769 | 0.6927 | 0.644 | 0.605 | 0.582 | 0.551 | 0.531
BT20, 1 µM | 0.931 | 0.861 | 0.861 | 0.802 | 0.7901 | 0.7817 | 0.769 | 0.772 | 0.766
BT20, 10 µM | 0.961 | 0.906 | 0.817 | 0.76 | 0.727 | 0.707 | 0.689 | 0.665 | 0.644
BT20, 100 µM | 0.955 | 0.944 | 0.847 | 0.924 | 0.909 | 0.914 | 0.917 | 0.817 | 0.842
HCC1143, 0.1 µM | 0.881 | 0.811 | 0.743 | 0.681 | 0.637 | 0.611 | 0.589 | 0.571 | 0.558
HCC1143, 1 µM | 0.882 | 0.803 | 0.763 | 0.717 | 0.673 | 0.637 | 0.612 | 0.602 | 0.578
HCC1143, 10 µM | 0.9174 | 0.8685 | 0.8112 | 0.767 | 0.714 | 0.672 | 0.645 | 0.62 | 0.604
HCC1143, 100 µM | 0.941 | 0.915 | 0.873 | 0.831 | 0.799 | 0.773 | 0.735 | 0.726 | 0.716
Hs578T, 0.1 µM | 0.852 | 0.76 | 0.716 | 0.649 | 0.598 | 0.567 | 0.549 | 0.545 | 0.53
Hs578T, 1 µM | 0.8568 | 0.748 | 0.734 | 0.676 | 0.653 | 0.638 | 0.62 | 0.624 | 0.62068
Hs578T, 10 µM | 0.912 | 0.8907 | 0.801 | 0.8136 | 0.783 | 0.754 | 0.727 | 0.7001 | 0.6762
Hs578T, 100 µM | 0.896 | 0.796 | 0.898 | 0.89 | 0.864 | 0.859 | 0.851 | 0.852 | 0.844
MDAMB468, 0.1 µM | 0.9104 | 0.862 | 0.8005 | 0.723 | 0.6724 | 0.657 | 0.628 | 0.6059 | 0.5879
MDAMB468, 1 µM | 0.8946 | 0.811 | 0.834 | 0.791 | 0.781 | 0.775 | 0.739 | 0.726 | 0.717
MDAMB468, 10 µM | 0.927 | 0.8985 | 0.851 | 0.806 | 0.796 | 0.7621 | 0.7418 | 0.735 | 0.718
MDAMB468, 100 µM | 0.907 | 0.873 | 0.891 | 0.822 | 0.808 | 0.827 | 0.806 | 0.81 | 0.804

C[C@]12CC[C@@H]3c4ccc(O)cc4C[C@@H](CCCCCCCCC[S+]([O-])CCCC(F)(F)C(F)(F)F)[C@H]3[C@@H]1CC[C@@H]2O (stereo partly drawn) [Fulvestrant]
relative JC-1 red fluorescence
Settings | 8 h | 16 h | 24 h | 32 h | 40 h | 48 h | 56 h | 64 h | 72 h
BT20, 0.1 µM | 0.932 | 0.864 | 0.7619 | 0.7001 | 0.65 | 0.621 | 0.578 | 0.548 | 0.53
BT20, 1 µM | 0.909 | 0.816 | 0.799 | 0.723 | 0.685 | 0.667 | 0.638 | 0.622 | 0.609
BT20, 10 µM | 0.9888 | 0.949 | 0.932 | 0.879 | 0.876 | 0.884 | 0.874 | 0.878 | 0.876
BT20, 100 µM | 0.819 | 0.761 | 0.854 | 0.874 | 0.904 | 0.904 | 0.84 | 0.877 | 0.822
HCC1143, 0.1 µM | 0.8912 | 0.8141 | 0.758 | 0.7118 | 0.6702 | 0.65 | 0.6282 | 0.622 | 0.615
HCC1143, 1 µM | 0.901 | 0.806 | 0.758 | 0.712 | 0.666 | 0.634 | 0.607 | 0.588 | 0.563
HCC1143, 10 µM | 0.955 | 0.935 | 0.905 | 0.876 | 0.862 | 0.835 | 0.835 | 0.831 | 0.833
HCC1143, 100 µM | 0.9798 | 0.915 | 0.965 | 0.9312 | 0.909 | 0.875 | 0.866 | 0.885 | 0.888
Hs578T, 0.1 µM | 0.8237 | 0.7318 | 0.668 | 0.633 | 0.607 | 0.585 | 0.568 | 0.569 | 0.562
Hs578T, 1 µM | 0.81 | 0.682 | 0.651 | 0.579 | 0.541 | 0.524 | 0.496 | 0.493 | 0.48
Hs578T, 10 µM | 0.973 | 0.931 | 0.841 | 0.838 | 0.803 | 0.78 | 0.759 | 0.751 | 0.734
Hs578T, 100 µM | 0.869 | 0.95 | 0.881 | 0.852 | 0.819 | 0.807 | 0.801 | 0.8 | 0.793
MDAMB468, 0.1 µM | 0.893 | 0.829 | 0.765 | 0.719 | 0.692 | 0.681 | 0.654 | 0.634 | 0.623
MDAMB468, 1 µM | 0.907 | 0.816 | 0.789 | 0.726 | 0.688 | 0.681 | 0.665 | 0.643 | 0.626
MDAMB468, 10 µM | 0.9719 | 0.97 | 0.948 | 0.915 | 0.913 | 0.902 | 0.893 | 0.871 | 0.856
MDAMB468, 100 µM | 0.962 | 0.9924 | 0.813 | 0.936 | 0.9603 | 0.96032 | 0.9532 | 0.9413 | 0.9367
